Our source for the TEAD-luciferase reporter activity values is the supplement of paper PMC10735217.

The assay deals with HEK293A TEAD-LUC reporter. Kind of assay: TEAD-luciferase reporter activity (YAP activation), robust Z score vs plate; higher = stronger YAP/TEAD activation. Particulars: 24 h.

Each structure is given as a SMILES string. Some of the results follow. Repeats in this data set agree poorly, so a single value says little.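 The human kidney-derived cells carry a stably integrated construct of eight TEAD-binding elements driving luciferase, read by luminescence in a drug-repurposing library screen. A compound counts as a hit when its signal is more than five robust Z scores above the plate mean.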

In the case of `CC(C)c1ccc2c(c1)c(SC(C)(C)C)c(CC(C)(C)C(=O)O)n2Cc1ccc(Cl)cc1`, the TEAD-luciferase reporter activity reads like this: (compound concentration: 200 nM) inactive: -0.399; (compound concentration: 2 uM) inactive: 0.383; (compound concentration: 10 uM) inactive: -1.33.

Turning to `O=C(CNC(=O)c1cccc(-c2ccc(C(F)(F)F)cc2)c1)NC1CCCC1`, the TEAD-luciferase reporter activity was inactive: -1.57 (compound concentration: 200 nM) and inactive: 4.28 (compound concentration: 10 uM).

As for `CC12CCC3c4ccc(O)cc4CC(CCCCCCCCCS(=O)CCCC(F)(F)C(F)(F)F)C3C1CCC2O` (stereo not drawn) [fulvestrant], the TEAD-luciferase reporter activity runs as follows: (compound concentration: 200 nM) inactive: -1.34; (compound concentration: 2 uM) inactive: -1.1; (compound concentration: 10 uM) inactive: -0.74.

As for `Cn1nnc(-c2ccc3c(c2)[nH]c2nc(Cc4ccccc4)nc(N[C@H]4CC[C@H](N)CC4)c23)n1`, the TEAD-luciferase reporter activity (compound concentration: 200 nM) was inactive: -0.888, the TEAD-luciferase reporter activity (compound concentration: 2 uM) is active: 5.31 and the TEAD-luciferase reporter activity (compound concentration: 10 uM) was inactive: 1.88.

On to `Nc1ccc(OCCCCCOc2ccc(N)cc2)cc1` [DAPP, Acucela], for which the TEAD-luciferase reporter activity (compound concentration: 200 nM) is inactive: 0.785 and the TEAD-luciferase reporter activity (compound concentration: 10 uM) was inactive: -0.51.

Turning to `Nc1cccc(CN2CCC(OC(=O)NC(c3ccccc3)c3ccccc3)CC2)c1`, the TEAD-luciferase reporter activity was inactive: 0.866 (compound concentration: 200 nM), inactive: -1.08 (compound concentration: 2 uM) and inactive: 1.31 (compound concentration: 10 uM).

As for `CN1CCN(C2=NS(=O)(=O)c3cc(Cl)ccc3N2)CC1`, the TEAD-luciferase reporter activity reads like this: (compound concentration: 200 nM) inactive: -1.33; (compound concentration: 2 uM) inactive: 0.106; (compound concentration: 10 uM) inactive: 0.0494.

Take `CCOc1cc(C(C)(C)C)ccc1C1=N[C@@](C)(c2ccc(Cl)cc2)[C@@](C)(c2ccc(Cl)cc2)N1C(=O)N1CCN(CCCS(C)(=O)=O)CC1`: the TEAD-luciferase reporter activity by setting is: (compound concentration: 200 nM) inactive: -0.967; (compound concentration: 2 uM) inactive: -0.293; (compound concentration: 10 uM) inactive: 2.66.

Turning to `Cc1cn(-c2cc(NC(=O)c3ccc(C)c(Nc4nccc(-c5cccnc5)n4)c3)cc(C(F)(F)F)c2)cn1` [nilotinib], the TEAD-luciferase reporter activity runs as follows: (compound concentration: 200 nM) inactive: -0.878; (compound concentration: 2 uM) inactive: -1.56; (compound concentration: 10 uM) inactive: 1.5.

For the compound `Nc1cc(-n2cc(C(=O)O)c(=O)c3cc(F)c(N4CC(N)C4)c(Cl)c32)c(F)cc1F`, the TEAD-luciferase reporter activity (compound concentration: 200 nM) is inactive: -0.748, the TEAD-luciferase reporter activity (compound concentration: 2 uM) is inactive: -1.66 and the TEAD-luciferase reporter activity (compound concentration: 10 uM) was inactive: 1.78.

In the case of `c1cn2cc(-c3ccc4cn[nH]c4c3)nc(Nc3ccc(N4CCOCC4)cc3)c2n1` [Entospletinib dimesylate], the TEAD-luciferase reporter activity reads like this: (compound concentration: 200 nM) inactive: -2.29; (compound concentration: 2 uM) inactive: -2.61; (compound concentration: 10 uM) inactive: -1.34.

On to `O=C(O)COC[C@H]1CC[C@H](COC(=O)N(c2ccccc2)c2ccc(Cl)cc2)CC1` [Ralinepag], for which the TEAD-luciferase reporter activity is inactive: -1.6 (compound concentration: 200 nM), inactive: 1.29 (compound concentration: 2 uM) and inactive: 0.554 (compound concentration: 10 uM).

On to `Cc1ccc2cc(C(=O)NC3(C(=O)N[C@H](Cc4ccccc4)C(=O)NCC4CCN(CC5CCOCC5)CC4)CCCC3)sc2c1` [Ibodutant], for which the TEAD-luciferase reporter activity was inactive: -0.68 (compound concentration: 200 nM), inactive: 0.257 (compound concentration: 2 uM) and inactive: -0.334 (compound concentration: 10 uM).

For `COc1ccc(Nc2nc(N)c(C(=O)c3ccc(OC)cc3)s2)cc1`, the TEAD-luciferase reporter activity is inactive: -0.207 (compound concentration: 200 nM), inactive: -1.25 (compound concentration: 2 uM) and inactive: 1.27 (compound concentration: 10 uM).

Turning to `CCCCCN(C(=O)c1ccccc1)c1ccc2nc(CCC)n(Cc3ccc(-c4ccccc4-c4nnn[nH]4)cc3)c(=O)c2c1`, the TEAD-luciferase reporter activity (compound concentration: 2 uM) is inactive: -1.24.

As to `CCc1cc(C(N)=O)ccc1-n1nc(C(C)C)c2c(-n3cnc(-c4cnn(C)c4)c3)ccnc21`, the TEAD-luciferase reporter activity (compound concentration: 200 nM) is inactive: 3.61, the TEAD-luciferase reporter activity (compound concentration: 2 uM) is inactive: 0.37 and the TEAD-luciferase reporter activity (compound concentration: 10 uM) was inactive: -1.39.

On to `CCOC(=O)COC1CCN(C(=O)[C@H](C)NC(=O)c2ccc(/C(N)=N/O)cc2)CC1`, for which the TEAD-luciferase reporter activity reads like this: (compound concentration: 200 nM) inactive: -0.519; (compound concentration: 2 uM) inactive: -1.74; (compound concentration: 10 uM) inactive: -1.51.

Turning to `Cc1cccc(C)c1CN1CCCC12Cc1ccccc1CNC2=O` (stereo not drawn), the TEAD-luciferase reporter activity (compound concentration: 200 nM) is inactive: 0.165 and the TEAD-luciferase reporter activity (compound concentration: 10 uM) was inactive: 4.74.

For the compound `C=CCC1(C)C(=O)N(c2ccccc2)c2ccccc21` (stereo not drawn), the TEAD-luciferase reporter activity was inactive: -0.495 (compound concentration: 200 nM), inactive: -1.29 (compound concentration: 2 uM) and inactive: -0.427 (compound concentration: 10 uM).

Turning to `COc1cc(S(C)=O)ccc1-c1nc2ncccc2[nH]1` (stereo not drawn) [sulmazole], the TEAD-luciferase reporter activity is, setting by setting: (compound concentration: 200 nM) inactive: -1.88; (compound concentration: 2 uM) inactive: -1; (compound concentration: 10 uM) inactive: -2.05.

For `NS(=O)(=O)c1ccc(N2N=C(c3ccc(F)cc3)CC2c2ccccc2F)cc1` (stereo not drawn) [analog of E-6087], the TEAD-luciferase reporter activity (compound concentration: 200 nM) was inactive: -1.85, the TEAD-luciferase reporter activity (compound concentration: 2 uM) was inactive: -1.16 and the TEAD-luciferase reporter activity (compound concentration: 10 uM) was inactive: -0.956.

For `CNS(=O)(=O)c1cc(OC)c(OC)c(C(=O)NC[C@@H]2CCCN2C)c1` [Sulverapride], the TEAD-luciferase reporter activity is inactive: -1.74 (compound concentration: 200 nM), inactive: -1.29 (compound concentration: 2 uM) and inactive: -0.872 (compound concentration: 10 uM).

Consider `O=c1c(F)cn(C2CCCO2)c(=O)n1C1CCCO1` (stereo not drawn), for which the TEAD-luciferase reporter activity reads like this: (compound concentration: 200 nM) inactive: -2.15; (compound concentration: 2 uM) inactive: 0.863; (compound concentration: 10 uM) inactive: 0.942.

Turning to `NC(=O)C1CN(CC(=O)Nc2c(Cl)cccc2Cl)CCN1CCCC(c1ccc(F)cc1)c1ccc(F)cc1` (stereo not drawn) [mioflazine], the TEAD-luciferase reporter activity is inactive: 1.5 (compound concentration: 200 nM), inactive: 0.546 (compound concentration: 2 uM) and inactive: -0.4 (compound concentration: 10 uM).

Regarding `CNCCCC1(c2ccccc2)OC(C)(C)c2ccccc21` (stereo not drawn) [talopram], the TEAD-luciferase reporter activity was inactive: 1.19 (compound concentration: 200 nM), inactive: 0.953 (compound concentration: 2 uM) and inactive: -0.816 (compound concentration: 10 uM).

In the case of `CC(=O)N(CC(O)CN(C(C)=O)c1c(I)c(C(=O)NCC(O)CO)c(I)c(C(=O)NCC(O)CO)c1I)c1c(I)c(C(=O)NCC(O)CO)c(I)c(C(=O)NCC(O)CO)c1I` (stereo not drawn), the TEAD-luciferase reporter activity is inactive: 0.596 (compound concentration: 200 nM) and inactive: 4.6 (compound concentration: 10 uM).

On to `CC(=O)N(CC(O)CN(C(C)=O)c1c(I)c(C(=O)NCC(O)CO)c(I)c(C(=O)NCC(O)CO)c1I)c1c(I)c(C(=O)NCC(O)CO)c(I)c(C(=O)NCC(O)CO)c1I` (stereo not drawn) [iodixanol], for which, where the note is “compound concentration: 2 uM”, the TEAD-luciferase reporter activity is inactive: 0.297.
